According to publication PMC10063672:
No constants are given. Whether binding was seen depends on the method and setting. Binding seen in cells or lysates may run through a third protein. Here binding means that the protein was enriched with, or labelled near, the bait; the list need not be complete. Tags and fused reporters may be left off the sequences shown.

Sequences of proteins named here, by UniProt entry; tags and fusion partners are left off.
UniProt Q9ESD7: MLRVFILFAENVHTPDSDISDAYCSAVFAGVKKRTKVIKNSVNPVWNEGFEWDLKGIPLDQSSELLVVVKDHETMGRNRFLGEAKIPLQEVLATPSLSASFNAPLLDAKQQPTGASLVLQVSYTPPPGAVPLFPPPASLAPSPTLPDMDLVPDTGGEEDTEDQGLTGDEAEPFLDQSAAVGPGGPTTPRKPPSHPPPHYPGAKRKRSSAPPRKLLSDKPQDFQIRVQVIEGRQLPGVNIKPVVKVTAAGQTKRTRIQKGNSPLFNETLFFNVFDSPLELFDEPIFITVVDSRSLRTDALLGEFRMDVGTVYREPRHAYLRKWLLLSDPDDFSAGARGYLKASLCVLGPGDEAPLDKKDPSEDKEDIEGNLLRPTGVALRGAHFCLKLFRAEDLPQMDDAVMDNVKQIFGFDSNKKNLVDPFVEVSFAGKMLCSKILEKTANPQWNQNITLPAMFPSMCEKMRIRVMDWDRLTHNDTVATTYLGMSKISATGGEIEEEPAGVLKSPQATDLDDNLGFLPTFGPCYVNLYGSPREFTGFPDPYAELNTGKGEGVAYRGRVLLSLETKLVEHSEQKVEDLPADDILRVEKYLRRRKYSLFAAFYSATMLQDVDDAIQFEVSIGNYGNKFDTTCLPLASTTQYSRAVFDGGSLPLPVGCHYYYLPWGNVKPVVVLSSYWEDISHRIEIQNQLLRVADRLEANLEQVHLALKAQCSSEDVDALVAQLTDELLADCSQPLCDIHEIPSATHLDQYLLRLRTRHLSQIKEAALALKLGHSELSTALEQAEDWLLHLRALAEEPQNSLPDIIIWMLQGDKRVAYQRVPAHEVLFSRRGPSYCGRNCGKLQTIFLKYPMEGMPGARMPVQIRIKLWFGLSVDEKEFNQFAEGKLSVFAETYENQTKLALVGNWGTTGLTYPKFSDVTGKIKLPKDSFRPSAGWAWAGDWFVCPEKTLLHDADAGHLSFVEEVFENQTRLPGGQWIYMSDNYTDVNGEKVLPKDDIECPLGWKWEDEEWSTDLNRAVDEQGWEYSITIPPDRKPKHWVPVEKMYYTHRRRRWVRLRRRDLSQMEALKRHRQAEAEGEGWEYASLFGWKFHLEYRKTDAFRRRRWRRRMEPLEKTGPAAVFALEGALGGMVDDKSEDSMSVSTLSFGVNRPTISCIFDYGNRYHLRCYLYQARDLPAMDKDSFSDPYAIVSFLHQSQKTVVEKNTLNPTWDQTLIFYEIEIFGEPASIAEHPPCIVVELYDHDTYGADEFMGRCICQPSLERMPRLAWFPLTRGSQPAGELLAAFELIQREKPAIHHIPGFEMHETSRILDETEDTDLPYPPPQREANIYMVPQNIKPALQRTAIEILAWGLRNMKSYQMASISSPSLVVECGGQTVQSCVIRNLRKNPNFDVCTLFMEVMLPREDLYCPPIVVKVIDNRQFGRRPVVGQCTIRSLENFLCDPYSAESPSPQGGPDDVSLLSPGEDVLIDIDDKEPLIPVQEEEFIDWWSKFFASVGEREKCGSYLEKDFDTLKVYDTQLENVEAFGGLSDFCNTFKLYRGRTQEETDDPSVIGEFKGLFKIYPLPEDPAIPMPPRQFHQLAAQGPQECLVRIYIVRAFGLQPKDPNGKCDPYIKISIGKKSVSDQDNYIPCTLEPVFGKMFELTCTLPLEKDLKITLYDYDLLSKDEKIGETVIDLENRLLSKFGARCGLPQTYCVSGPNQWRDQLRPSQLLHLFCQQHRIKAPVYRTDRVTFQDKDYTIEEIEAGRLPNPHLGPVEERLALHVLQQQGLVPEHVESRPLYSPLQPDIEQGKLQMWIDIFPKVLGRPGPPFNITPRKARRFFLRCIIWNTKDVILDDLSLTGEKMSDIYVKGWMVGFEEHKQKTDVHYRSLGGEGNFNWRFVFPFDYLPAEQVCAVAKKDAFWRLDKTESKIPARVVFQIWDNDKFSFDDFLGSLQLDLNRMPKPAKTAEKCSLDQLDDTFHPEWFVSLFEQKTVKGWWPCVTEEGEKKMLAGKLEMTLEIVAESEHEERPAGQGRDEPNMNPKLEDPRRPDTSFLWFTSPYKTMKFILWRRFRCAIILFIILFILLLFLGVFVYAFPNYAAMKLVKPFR
UniProt P11531: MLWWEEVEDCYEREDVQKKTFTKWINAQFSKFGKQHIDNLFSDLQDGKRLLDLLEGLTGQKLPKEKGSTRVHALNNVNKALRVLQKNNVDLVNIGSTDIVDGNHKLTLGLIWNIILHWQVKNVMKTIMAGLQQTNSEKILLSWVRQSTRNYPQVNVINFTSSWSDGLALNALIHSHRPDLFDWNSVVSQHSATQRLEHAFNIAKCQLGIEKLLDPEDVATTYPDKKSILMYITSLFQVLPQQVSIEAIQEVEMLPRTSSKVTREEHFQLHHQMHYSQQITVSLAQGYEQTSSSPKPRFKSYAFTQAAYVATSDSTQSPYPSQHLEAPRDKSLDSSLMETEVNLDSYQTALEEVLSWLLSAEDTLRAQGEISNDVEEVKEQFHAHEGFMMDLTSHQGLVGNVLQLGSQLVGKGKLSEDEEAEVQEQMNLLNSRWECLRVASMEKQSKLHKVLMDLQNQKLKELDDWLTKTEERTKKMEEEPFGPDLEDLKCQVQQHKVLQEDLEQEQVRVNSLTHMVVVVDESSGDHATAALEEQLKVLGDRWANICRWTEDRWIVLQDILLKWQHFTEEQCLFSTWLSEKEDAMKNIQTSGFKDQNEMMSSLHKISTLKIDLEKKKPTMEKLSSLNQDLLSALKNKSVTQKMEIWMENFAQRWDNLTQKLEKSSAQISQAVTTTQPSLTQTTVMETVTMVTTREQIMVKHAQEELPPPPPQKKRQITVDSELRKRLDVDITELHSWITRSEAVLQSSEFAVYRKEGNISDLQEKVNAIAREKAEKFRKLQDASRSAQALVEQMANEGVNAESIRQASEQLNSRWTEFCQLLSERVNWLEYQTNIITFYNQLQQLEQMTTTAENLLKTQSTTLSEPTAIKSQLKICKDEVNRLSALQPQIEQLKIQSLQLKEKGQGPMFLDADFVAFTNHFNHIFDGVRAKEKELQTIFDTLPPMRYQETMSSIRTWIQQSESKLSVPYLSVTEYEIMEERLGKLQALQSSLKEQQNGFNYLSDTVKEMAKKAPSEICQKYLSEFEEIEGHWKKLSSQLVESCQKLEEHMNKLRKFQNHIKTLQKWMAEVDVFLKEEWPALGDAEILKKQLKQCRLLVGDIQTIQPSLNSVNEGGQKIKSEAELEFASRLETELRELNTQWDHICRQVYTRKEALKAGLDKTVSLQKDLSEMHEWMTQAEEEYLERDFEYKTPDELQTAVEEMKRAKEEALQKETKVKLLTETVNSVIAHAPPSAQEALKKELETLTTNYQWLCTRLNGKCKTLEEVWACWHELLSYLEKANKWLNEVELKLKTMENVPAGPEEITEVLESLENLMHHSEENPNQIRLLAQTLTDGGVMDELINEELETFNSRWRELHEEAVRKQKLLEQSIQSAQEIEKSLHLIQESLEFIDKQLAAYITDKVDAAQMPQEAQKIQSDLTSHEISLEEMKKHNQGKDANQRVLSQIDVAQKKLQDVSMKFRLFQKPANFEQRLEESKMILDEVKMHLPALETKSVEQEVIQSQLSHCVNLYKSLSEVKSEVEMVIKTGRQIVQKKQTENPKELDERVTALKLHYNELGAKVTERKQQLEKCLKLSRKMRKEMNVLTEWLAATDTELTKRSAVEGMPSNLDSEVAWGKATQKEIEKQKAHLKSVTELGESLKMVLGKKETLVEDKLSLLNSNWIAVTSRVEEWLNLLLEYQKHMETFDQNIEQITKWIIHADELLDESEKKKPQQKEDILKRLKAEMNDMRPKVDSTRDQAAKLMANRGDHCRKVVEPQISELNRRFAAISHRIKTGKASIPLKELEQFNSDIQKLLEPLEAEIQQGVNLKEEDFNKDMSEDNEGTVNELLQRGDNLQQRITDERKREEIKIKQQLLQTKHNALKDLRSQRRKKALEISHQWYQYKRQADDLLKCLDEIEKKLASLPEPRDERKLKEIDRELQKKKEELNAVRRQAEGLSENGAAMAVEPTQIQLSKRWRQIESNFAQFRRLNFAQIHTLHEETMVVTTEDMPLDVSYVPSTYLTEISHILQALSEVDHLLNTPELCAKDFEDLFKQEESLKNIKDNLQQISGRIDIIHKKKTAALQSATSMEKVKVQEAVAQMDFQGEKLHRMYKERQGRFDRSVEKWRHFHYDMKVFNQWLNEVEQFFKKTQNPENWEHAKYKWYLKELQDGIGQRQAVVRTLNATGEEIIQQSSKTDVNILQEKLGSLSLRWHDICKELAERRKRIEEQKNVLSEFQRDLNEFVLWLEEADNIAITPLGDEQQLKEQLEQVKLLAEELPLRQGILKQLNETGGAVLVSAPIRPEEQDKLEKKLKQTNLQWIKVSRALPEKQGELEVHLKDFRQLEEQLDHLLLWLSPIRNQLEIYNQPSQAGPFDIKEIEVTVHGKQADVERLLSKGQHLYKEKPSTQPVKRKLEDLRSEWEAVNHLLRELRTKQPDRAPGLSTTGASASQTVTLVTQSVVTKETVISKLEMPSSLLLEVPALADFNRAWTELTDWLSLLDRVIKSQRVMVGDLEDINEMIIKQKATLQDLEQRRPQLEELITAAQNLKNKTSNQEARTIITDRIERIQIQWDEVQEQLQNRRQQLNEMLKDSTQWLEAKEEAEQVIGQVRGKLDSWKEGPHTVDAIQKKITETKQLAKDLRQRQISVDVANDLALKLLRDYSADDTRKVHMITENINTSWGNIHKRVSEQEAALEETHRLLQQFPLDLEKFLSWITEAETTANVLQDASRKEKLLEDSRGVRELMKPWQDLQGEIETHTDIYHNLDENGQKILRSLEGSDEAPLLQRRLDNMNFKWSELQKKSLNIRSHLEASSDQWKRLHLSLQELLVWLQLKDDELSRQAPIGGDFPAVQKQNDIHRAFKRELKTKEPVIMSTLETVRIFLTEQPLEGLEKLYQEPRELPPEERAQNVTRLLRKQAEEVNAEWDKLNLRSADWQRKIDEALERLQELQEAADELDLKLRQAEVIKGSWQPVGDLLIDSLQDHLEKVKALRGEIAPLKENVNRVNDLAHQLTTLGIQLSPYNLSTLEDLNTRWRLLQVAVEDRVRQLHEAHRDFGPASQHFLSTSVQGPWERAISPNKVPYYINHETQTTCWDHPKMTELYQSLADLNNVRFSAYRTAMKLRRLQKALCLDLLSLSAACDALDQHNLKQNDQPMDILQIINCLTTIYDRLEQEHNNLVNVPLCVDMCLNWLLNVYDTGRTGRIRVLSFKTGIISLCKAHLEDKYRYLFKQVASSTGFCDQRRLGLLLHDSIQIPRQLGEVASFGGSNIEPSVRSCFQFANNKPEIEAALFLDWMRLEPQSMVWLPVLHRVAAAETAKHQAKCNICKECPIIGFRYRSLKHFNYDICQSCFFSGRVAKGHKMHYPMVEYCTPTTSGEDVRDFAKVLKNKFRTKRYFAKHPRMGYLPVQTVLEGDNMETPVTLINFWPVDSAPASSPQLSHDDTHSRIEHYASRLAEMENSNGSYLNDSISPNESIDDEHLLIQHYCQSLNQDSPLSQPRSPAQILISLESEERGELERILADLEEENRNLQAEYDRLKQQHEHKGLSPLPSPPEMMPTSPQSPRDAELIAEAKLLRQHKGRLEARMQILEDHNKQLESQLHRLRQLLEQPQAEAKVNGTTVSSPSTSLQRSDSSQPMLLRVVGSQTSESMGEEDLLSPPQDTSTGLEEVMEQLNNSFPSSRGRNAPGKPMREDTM

T1: BVES-3xHA (human blood vessel epicardial substance, HA-tagged), delivered by AAV9 into mouse skeletal muscle (human) (UniProt Q8NE79)
T1 sequence: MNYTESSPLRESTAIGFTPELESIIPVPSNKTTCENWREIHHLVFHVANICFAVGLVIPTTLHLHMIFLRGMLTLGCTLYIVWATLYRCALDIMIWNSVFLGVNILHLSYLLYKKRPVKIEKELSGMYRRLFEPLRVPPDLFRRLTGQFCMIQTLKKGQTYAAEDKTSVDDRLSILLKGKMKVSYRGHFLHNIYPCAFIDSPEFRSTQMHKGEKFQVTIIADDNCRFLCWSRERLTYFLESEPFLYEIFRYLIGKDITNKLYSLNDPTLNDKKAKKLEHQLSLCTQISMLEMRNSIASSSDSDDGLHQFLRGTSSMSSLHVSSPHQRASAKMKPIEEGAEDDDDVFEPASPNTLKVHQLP

B1: ADCY9 (adenylyl cyclase 9), endogenous in mouse skeletal muscle (enzyme, UniProt P51830 1-1353)
chain: MASSPHQQLLHHHSTEVSCDSSGDSNSVRVKINPKQLSSNTHPKHCKYSISSSCSSSGDSGGLPRRVGGGGRLRRQKKLPQLFERASSRWWDPKFDSMNLEEACLERCFPQTQRRFRYALFYVGFACLLWSIYFAVHMKSKVIVMVVPALCFLVVCVGFFLFTFTKLYARHYAWTSLALTLLVFALTLAAQFQVWTPLSGRVDSSNHTLTATPADTCLSQVGSFSICIEVLLLLYTVMQLPLYLSLFLGVVYSVLFETFGYHFRNEDCYPSPGPGALHWELLSRALLHVCIHAIGIHLFVMSQVRSRSTFLKVGQSIMHGKDLEVEKALKERMIHSVMPRIIADDLMKQGDEESENSVKRHATSSPKNRKKKSSIQKAPIAFRPFKMQQIEEVSILFADIVGFTKMSANKSAHALVGLLNDLFGRFDRLCEQTKCEKISTLGDCYYCVAGCPEPRADHAYCCIEMGLGMIKAIEQFCQEKKEMVNMRVGVHTGTVLCGILGMRRFKFDVWSNDVNLANLMEQLGVAGKVHISEATAKYLDDRYEMEDGRVIERLGQSVVADQLKGLKTYLISGQRAKESHCSCAEALLSGFEVIDDSRESSGPRGQGTASPGSVSDLAQTVKTFDNLKTCPSCGITFAPKSEAGAEGGTVQNGCQDEPKTSTKASGGPNSKTQNGLLSPPAEEKLTNSQTSLCEILQEKGRWAGVSLDQSALLPLRFKNIREKTDAHFVDVIKEDSLMKDYFFKPPINQFSLNFLDQELERSYRTSYQEEVIKNSPVKTFASATFSSLLDVFLSTTVFLILSITCFLKYGATATPPPPAALAVFGADLLLEVLSLIVSIRMVFFLEDVMTCTKWLLEWIAGWLPRHCIGAILVSLPALAVYSHITSEFETNIHVTMFTGSAVLVAVVHYCNFCQLSSWMRSSLATIVGAGLLLLLHISLCQDSSIVMSPLDSAQNFSAQRNPCNSSVLQDGRRPASLIGKELILTFFLLLLLVWFLNREFEVSYRLHYHGDVEADLHRTKIQSMRDQADWLLRNIIPYHVAEQLKVSQTYSKNHDSGGVIFASIVNFSEFYEENYEGGKECYRVLNELIGDFDELLSKPDYNSIEKIKTIGATYMAASGLNTAQCQEGGHPQEHLRILFEFAKEMMRVVDDFNNNMLWFNFKLRVGFNHGPLTAGVIGTTKLLYDIWGDTVNIASRMDTTGVECRIQVSEESYRVLSKMGYDFDYRGTVNVKGKGQMKTYLYPKCTDNGVVPQHQLSISPDIRVQVDGSIGRSPTDEIANLVPSVQYSDKASLGSDDSTQAKEARLSSKRSWREPVKAEERFPFGKAIEKDSCEDIGVEEASELSKLNVSKSV

Each molecule was assayed against T1, BVES-3xHA (human blood vessel epicardial substance, HA-tagged), delivered by AAV9 into mouse skeletal muscle (human) (assay: affinity purification with mass spectrometry; anti-HA magnetic beads, 1 h at 4 °C, on gastrocnemius muscle lysates of BVES-KO mice injected with AAV9-BVES-3xHA (WT mice as control); lysis buffer 25 mM Tris-HCl pH 7.4, 150 mM NaCl, 5% glycerol, 1% Triton X-100, 2 mM EDTA, 1 mM DTT; four washes; background of the control sample subtracted).

“dysferlin, endogenous in mouse skeletal muscle (from UniProt Q9ESD7 1-2090)” was tested. Which binding did it give?
Its binding is “binds”.

“dystrophin, endogenous in mouse skeletal muscle (from UniProt P11531 1-3678)” was tested. Which binding did it give?
The binding was “binds”.

Which binding does the source give for B1 here?
The binding was “binds”.
